Tests used:
Type in all cases: cell-based
HL-60 cells = test: XTT cell viability, HL-60 cells; details: Homo sapiens, 5% serum supplemented medium, 24h, read-out: IC 50, cell viability
Protocol: (§1) human HL-60, myeloblastic leukemia and CCRF-CEM, acute lymphoblastic leukemia cell line were cultured in RPMI-1640 supplemented with 10% (v/v) heat-inactivated fetal calf serum, 2 mM L-glutamine, 100U/ml penicillin and 100 μg/ml streptomycin. MCF-7, breast cancer and A-172, glioblastoma cell lines were cultured in DMEM supplemented with 10% (v/v) heat-inactivated fetal calf serum, 2 mM L-glutamine, 100U/ml penicillin and 100 μg/ml streptomycin. Cultures were maintained at 37° C. in a humidified atmosphere with 5% CO2 and maintained in exponential phase by transfer to fresh medium every 2-3 days. Experiments were conducted in serum free medium and 5% or 10% FCS medium. The trypanblue dye exclusion method was used for cell counting performed using a hemocytometer under light microscope.

CCRF-CEM cells = test: XTT cell viability, CCRF-CEM cells; details: Homo sapiens, 5% serum supplemented medium, 24h, read-out: IC 50, cell viability
Protocol: as §1

MCF-7 cells = test: XTT cell viability, MCF-7 cells; details: Homo sapiens, MCF7; 5% serum containing medium, 24h; read-out: IC 50, cell viability
Protocol: as §1

Row | Compound | IC50 (HL-60 cells) [µM] | IC50 (CCRF-CEM cells) [µM] | IC50 (MCF-7 cells) [µM]
1 | CCN(CC)CCOc1ccc(C(=C(Cl)c2ccccc2)c2ccccc2)cc1 [clomiphene] | 14 | 15 | 
2 | CC/C(=C(\c1ccccc1)c1ccc(OCCN(C)C)cc1)c1ccccc1 [tamoxifen] | 12 | 16 | 12
